Results on 1 molecule are retold here after patent publication US10933061B2 (Shepherd Therapeutics, Inc., priority 2017, dated 2021).

Assay in all cases: cells
The test system of assay [1] is TC71. Particulars: TC-71, 72 h.
For assay [2], the system named is CHP212. The conditions noted are these: Homo sapiens, CHP-212, 72 h.
The test system of assay [3] is SNU16. Particulars: Homo sapiens, SNU-16, 72 h.
For assay [4], the system named is BXPC3. Particulars: Homo sapiens, BXPC-3, 72 h.
Assay [5] has as its system COV362. The conditions noted are these: COV362, 72 h.
The subject of assay [6] is RH41. The conditions noted are these: Homo sapiens, Rh41, 72 h.
Assay [7] deals with SK-LMS-1. The conditions noted are these: Homo sapiens, SK-LMS-1, 72 h.
The test system of assay [8] is STC-1. Particulars: STC-1, 72 h.
Assay [9] concerns TOV112D. Particulars: Homo sapiens, 72 h.
The subject of assay [10] is MSTO211H. The conditions noted are these: Homo sapiens, MSTO-211H, 72 h.
For assay [11], the system named is HS766T. The conditions noted are these: 72 h.
The subject of assay [12] is RH30. Particulars: Rh30, 72 h.

Broadly, the IC50 is the midpoint of a concentration-inhibition curve. Higher therefore signals a need for much substance.

For `Cc1cc(/C=C/c2ccc3cc(N(C)C)ccc3[n+]2C)c(C)n1-c1ccccc1` [pyrvinium pamoate, 3-carboxy-1-[(3-carboxy-2-oxidonaphthalen-1-yl)methyl]naphthalen-2-olate;2-[(E)-2-(2,5-dimethyl-1-phenylpyrrol-3-yl)ethenyl]-N,N,1-trimethylquinolin-1-ium-6-amine], the half-inhibitory concentration (IC50) came out at 70 µM in assay [1]; 60 µM in assay [2]; 60 µM in assay [3]; 50 µM in [4]; 500 µM in assay [5]; 20 µM in [6]. For the same molecule, the IC50 in [7] turned out to be 20 µM; in assay [8] it was 10 µM; in [9], 70 µM; in [10] it was 440 µM; in [11], 60 µM; in assay [12] it was 40 µM.
